{"sequences": {"note": "Protein sequences, listed by entry. Tags and fused reporters are not part of them. Lines headed by an entry give the natural chain unless they say otherwise; changes in a name come on top.", "UniProt P10276, whole entry, looked up": "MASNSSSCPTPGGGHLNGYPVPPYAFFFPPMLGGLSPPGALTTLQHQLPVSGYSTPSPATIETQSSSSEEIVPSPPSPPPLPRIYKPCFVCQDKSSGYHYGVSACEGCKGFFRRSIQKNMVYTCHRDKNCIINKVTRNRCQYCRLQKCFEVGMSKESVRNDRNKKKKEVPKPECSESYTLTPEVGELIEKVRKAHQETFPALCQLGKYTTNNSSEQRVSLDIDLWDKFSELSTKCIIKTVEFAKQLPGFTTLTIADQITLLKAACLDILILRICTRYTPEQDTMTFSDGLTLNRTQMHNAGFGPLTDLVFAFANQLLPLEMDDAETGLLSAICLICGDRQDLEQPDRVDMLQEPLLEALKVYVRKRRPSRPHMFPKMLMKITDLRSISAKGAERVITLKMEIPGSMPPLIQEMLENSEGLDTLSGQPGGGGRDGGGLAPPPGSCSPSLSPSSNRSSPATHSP", "UniProt O75469": "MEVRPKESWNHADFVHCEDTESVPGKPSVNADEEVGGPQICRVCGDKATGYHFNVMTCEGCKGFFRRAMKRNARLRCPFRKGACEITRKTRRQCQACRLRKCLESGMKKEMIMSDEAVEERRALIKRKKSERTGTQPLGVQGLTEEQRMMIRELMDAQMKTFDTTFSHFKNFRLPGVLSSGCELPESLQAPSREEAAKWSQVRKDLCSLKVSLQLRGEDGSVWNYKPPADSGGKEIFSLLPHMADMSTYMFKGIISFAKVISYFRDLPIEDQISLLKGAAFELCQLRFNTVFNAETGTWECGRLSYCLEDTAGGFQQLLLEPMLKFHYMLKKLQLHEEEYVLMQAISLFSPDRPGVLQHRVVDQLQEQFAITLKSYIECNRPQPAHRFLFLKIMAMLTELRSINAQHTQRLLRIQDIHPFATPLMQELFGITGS", "UniProt P13631, whole entry, looked up": "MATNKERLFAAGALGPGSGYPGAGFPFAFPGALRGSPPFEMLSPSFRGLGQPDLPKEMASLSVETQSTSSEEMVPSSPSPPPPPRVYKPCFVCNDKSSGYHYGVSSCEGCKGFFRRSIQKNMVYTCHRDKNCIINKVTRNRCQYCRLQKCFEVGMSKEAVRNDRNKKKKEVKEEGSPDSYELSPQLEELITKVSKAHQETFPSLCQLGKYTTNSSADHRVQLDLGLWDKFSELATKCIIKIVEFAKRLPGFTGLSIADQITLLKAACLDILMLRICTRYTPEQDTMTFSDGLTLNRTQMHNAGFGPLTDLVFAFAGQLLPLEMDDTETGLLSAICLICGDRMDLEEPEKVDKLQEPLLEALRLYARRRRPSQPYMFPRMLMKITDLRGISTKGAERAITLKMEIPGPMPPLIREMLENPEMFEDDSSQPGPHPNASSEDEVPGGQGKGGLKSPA", "UniProt Q92753": "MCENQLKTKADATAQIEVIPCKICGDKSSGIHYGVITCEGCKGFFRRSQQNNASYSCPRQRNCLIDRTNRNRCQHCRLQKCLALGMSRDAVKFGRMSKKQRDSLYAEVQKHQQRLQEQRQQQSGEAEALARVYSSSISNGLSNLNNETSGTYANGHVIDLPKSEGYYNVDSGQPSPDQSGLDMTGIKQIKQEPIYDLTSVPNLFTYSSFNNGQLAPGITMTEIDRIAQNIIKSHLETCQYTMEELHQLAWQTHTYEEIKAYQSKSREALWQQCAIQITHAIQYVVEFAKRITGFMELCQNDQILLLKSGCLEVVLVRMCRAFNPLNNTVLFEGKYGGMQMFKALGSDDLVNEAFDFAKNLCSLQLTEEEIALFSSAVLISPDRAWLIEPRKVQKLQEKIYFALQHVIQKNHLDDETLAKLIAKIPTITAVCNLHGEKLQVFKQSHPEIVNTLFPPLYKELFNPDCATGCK", "UniProt P28702": "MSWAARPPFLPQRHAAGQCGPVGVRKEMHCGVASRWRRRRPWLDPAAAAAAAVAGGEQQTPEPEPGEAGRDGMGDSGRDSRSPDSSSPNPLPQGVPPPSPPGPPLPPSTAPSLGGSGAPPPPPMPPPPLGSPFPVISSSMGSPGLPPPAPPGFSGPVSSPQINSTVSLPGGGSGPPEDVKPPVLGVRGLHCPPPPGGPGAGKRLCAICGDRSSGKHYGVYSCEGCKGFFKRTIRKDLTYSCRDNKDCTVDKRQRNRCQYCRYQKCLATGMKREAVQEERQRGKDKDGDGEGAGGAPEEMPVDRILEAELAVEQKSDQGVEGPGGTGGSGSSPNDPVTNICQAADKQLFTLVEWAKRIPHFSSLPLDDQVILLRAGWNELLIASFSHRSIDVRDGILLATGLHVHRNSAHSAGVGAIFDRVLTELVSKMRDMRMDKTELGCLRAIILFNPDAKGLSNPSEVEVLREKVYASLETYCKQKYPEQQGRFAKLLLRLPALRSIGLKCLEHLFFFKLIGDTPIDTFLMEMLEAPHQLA", "UniProt P51449": "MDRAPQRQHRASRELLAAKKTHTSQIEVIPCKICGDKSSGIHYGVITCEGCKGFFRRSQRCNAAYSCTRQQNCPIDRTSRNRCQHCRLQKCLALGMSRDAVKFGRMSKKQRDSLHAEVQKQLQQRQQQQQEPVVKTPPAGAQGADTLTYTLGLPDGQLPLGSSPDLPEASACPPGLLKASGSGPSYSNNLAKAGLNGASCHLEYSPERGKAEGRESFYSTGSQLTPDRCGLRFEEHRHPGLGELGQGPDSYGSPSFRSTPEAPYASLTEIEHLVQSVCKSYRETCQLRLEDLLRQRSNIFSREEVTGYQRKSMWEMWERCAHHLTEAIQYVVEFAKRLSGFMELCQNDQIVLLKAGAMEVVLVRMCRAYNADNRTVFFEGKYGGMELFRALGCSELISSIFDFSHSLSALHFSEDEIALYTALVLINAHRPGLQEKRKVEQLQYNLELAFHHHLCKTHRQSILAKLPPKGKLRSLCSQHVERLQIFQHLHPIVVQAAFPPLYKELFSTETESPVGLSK", "UniProt P37231": "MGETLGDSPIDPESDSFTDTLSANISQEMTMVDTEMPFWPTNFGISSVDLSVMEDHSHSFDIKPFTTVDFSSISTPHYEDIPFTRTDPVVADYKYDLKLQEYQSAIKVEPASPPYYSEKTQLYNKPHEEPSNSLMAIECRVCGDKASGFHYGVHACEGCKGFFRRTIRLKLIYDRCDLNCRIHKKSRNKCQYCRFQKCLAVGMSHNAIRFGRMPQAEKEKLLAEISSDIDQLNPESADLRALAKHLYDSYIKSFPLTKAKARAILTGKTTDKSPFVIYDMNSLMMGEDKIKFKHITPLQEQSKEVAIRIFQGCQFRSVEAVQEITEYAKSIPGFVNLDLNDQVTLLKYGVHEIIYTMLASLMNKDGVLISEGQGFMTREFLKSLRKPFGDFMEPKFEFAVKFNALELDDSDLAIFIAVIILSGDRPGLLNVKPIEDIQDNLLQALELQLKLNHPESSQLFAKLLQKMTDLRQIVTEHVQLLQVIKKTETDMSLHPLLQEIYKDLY", "UniProt P19793": "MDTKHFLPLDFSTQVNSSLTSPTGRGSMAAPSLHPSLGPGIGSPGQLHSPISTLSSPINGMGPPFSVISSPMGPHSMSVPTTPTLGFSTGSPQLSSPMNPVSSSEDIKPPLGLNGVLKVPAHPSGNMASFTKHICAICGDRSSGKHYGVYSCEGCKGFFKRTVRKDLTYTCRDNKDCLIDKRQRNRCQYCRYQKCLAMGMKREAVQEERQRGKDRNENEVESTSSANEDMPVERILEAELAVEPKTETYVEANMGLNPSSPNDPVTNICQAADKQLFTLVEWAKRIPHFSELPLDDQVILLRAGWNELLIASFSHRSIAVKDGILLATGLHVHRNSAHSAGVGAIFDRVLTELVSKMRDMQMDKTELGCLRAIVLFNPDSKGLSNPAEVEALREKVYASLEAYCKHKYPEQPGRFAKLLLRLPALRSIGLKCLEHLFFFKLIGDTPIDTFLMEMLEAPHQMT", "UniProt P11473": "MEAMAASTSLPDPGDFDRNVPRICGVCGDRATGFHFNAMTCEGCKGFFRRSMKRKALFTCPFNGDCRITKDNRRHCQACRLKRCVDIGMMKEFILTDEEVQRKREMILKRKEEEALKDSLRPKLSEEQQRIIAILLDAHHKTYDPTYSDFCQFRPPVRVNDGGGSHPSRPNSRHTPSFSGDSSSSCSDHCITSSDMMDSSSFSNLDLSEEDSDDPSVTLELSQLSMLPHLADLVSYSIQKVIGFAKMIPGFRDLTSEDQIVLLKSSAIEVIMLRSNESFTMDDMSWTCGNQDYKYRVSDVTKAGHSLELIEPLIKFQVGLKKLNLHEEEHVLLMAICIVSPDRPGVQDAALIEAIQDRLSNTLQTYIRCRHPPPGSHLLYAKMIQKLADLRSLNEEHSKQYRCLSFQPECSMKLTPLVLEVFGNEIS", "UniProt P10827": "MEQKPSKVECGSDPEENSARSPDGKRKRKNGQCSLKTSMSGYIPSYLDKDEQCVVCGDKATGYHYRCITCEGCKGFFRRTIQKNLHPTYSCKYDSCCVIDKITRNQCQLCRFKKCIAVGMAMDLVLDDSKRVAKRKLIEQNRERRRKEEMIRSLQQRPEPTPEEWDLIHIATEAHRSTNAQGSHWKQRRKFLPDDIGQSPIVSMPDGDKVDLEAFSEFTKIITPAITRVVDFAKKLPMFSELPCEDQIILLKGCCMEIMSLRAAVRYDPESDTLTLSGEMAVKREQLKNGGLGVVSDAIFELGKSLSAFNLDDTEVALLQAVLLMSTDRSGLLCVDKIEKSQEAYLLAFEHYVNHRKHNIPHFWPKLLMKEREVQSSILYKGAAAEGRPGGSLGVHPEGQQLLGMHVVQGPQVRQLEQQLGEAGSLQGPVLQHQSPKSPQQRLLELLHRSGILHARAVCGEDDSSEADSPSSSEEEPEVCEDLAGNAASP"}, "source": "PubChem BioAssay (EPA / NIEHS)", "key": {"[1]": {"target": "Retinoic acid receptor alpha (Homo sapiens) (UniProt P10276)", "assay": "ATG_RARa_TRANS: Attagene TRANS-FACTORIAL HepG2 Assay for human Retinoic Acid Receptor alpha (RARa) (AID 2283005);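 for AC50: potency for increased reporter signal meaning RARa activation over DMSO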", "procedure,_shortened": "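Reporter transcripts, measured by RT-PCR with fluorescent labeling and capillary electrophoresis after 24 h dosing, reflect activity of an exogenous human RARa–GAL4 fusion in transiently transfected HepG2. Fitted for increase relative to DMSO.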"}, "[2]": {"target": "Nuclear receptor subfamily 1 group I member 2 (Homo sapiens) (UniProt O75469)", "assay": "ATG_PXR_TRANS: Attagene TRANS-FACTORIAL HepG2 Assay for human Pregnane X Receptor (PXR) (AID 2283008)", "procedure,_shortened": "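Multiplexed TRANS reporter panel in HepG2; this component tracks PXR-Gal4-driven reporter mRNA after 24 h dosing, measured by RT-PCR with capillary electrophoresis fluorescence, fitted against DMSO.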"}, "[3]": {"target": "human Retinoic Acid Receptor gamma (RARg), RARG (gene 5916) (UniProt P13631)", "assay": "ATG_RARg_TRANS: Attagene TRANS-FACTORIAL HepG2 Assay for human Retinoic Acid Receptor gamma (RARg) (AID 2283009);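 for AC50: AC50 is for reporter induction above DMSO meaning RARg activation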", "procedure,_shortened": "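TRANS format measured activity of exogenous NR-GAL4 fusion (RARg) in transfected HepG2 liver cells after 24 h dosing. Induced reporter RNA was detected by RT-PCR/capillary electrophoresis fluorescence, analysed in the positive direction against DMSO.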"}, "[4]": {"target": "human RAR-related Orphan Receptor beta (RORb), RORB (gene 6096) (UniProt Q92753)", "assay": "ATG_RORb_TRANS: Attagene TRANS-FACTORIAL HepG2 Assay for human RAR-related Orphan Receptor beta (RORb) (AID 2283010);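 for AC50: potency for increased reporter mRNA meaning activation of RORb-Gal4 chimera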", "procedure,_shortened": "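Transfect HepG2 with multiple GAL4-UAS reporter transcription units; dose chemicals for 24 h; isolate RNA, reverse-transcribe and PCR-amplify reporter sequences; label, digest and resolve fragments by capillary electrophoresis; fit increases relative to DMSO.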"}, "[5]": {"target": "human Retinoid X Receptor beta (RXRb), RXRB (gene 6257) (UniProt P28702)", "assay": "ATG_RXRb_TRANS: Attagene TRANS-FACTORIAL HepG2 Assay for human Retinoid X Receptor beta (RXRb) (AID 2283013)", "procedure,_shortened": "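Chimeric receptor-Gal4 activity was assessed in transiently transfected human HepG2 cells after 24 h exposure. Transcripts from GAL4-UAS reporters were quantified by fluorescent RT-PCR and capillary electrophoresis, with DMSO as negative control and baseline.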"}, "[6]": {"target": "human RAR-related Orphan Receptor gamma (RORg), RORC (gene 6097) (UniProt P51449)", "assay": "ATG_RORg_TRANS: Attagene TRANS-FACTORIAL HepG2 Assay for human RAR-related Orphan Receptor gamma (RORg) (AID 2283011);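 for AC50: potency for induction of reporter transcripts above DMSO so activators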", "procedure,_shortened": "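HepG2 cells transiently transfected with GAL4-UAS reporter units and chimeric RORg-Gal4 construct; after 24 h chemical exposure, reporter mRNA measured by RT-PCR with fluorescent capillary electrophoresis, gain of signal fitted against DMSO.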"}, "[7]": {"target": "Peroxisome proliferator-activated receptor gamma (Homo sapiens) (UniProt P37231)", "assay": "ATG_PPARg_TRANS: Attagene TRANS-FACTORIAL HepG2 Assay for human Peroxisome Proliferator-activated Receptor-gamma (PPARg) (AID 2283007)", "procedure,_shortened": "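A TRANS-format multiplexed reporter assay measures activity of an exogenous chimeric NR-Gal4 protein in HepG2 cells. After 24 h of chemical exposure, reporter transcripts are amplified, fluorescently labelled and sized by capillary electrophoresis, with gain of signal scored against DMSO.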"}, "[8]": {"target": "Retinoic acid receptor RXR-alpha (Homo sapiens) (UniProt P19793)", "assay": "ATG_RXRa_TRANS: Attagene TRANS-FACTORIAL HepG2 Assay for human Retinoid X Receptor alpha (RXRa) (AID 2283012)", "procedure,_shortened": "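Measures exogenous chimeric NR-GAL4 activity in transfected HepG2 liver cells after 24 h of dosing. Induced reporter mRNA was detected by RT-PCR with capillary electrophoresis, and gain of signal was analysed against DMSO.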"}, "[9]": {"target": "human Vitamin D Receptor (VDR), VDR (gene 7421) (UniProt P11473)", "assay": "ATG_VDR_TRANS: Attagene TRANS-FACTORIAL HepG2 Assay for human Vitamin D Receptor (VDR) (AID 2283022)", "procedure,_shortened": "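HepG2 cells were transiently transfected with GAL4-UAS reporter units and a chimeric VDR-Gal4 construct, then dosed for 24 hours. Reporter mRNA was quantified by RT-PCR, fluorescent labeling, HpaI digestion and capillary electrophoresis; gain of signal analysed vs DMSO.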"}, "[10]": {"target": "human Thyroid Receptor alpha (THRa1), THRA (gene 7067) (UniProt P10827)", "assay": "ATG_THRa1_TRANS: Attagene TRANS-FACTORIAL HepG2 Assay for human Thyroid Receptor alpha (THRa1) (AID 2283014)", "procedure,_shortened": "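HepG2 cells transiently transfected with chimeric NR-Gal4 and GAL4-UAS reporter units, dosed 24 h. Reporter mRNA quantified by RT-PCR, fluorescent labeling, HpaI digestion and capillary electrophoresis; gain-of-signal fit versus DMSO.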"}}, "note": "“And” between values parts separate entries of the source, which are not always exact repeats. Equal entries are not always repeated. Inconclusive means that the source gave no clear call. Such entries were picked first, then a sample of the others. A potency beside an inconclusive call is a rough fit, not a confirmed value. Some structures have more than one record in an assay (separate samples or runs), and their calls can disagree. The source made the active and inactive calls. Rule for the calls: active = hit-call score of the fitted dose curve at least 0.9, where 1 is the maximum; inconclusive = response in the unintended direction; inactive = score below 0.9."}
{"compound": "S=P(N1CC1)(N1CC1)N1CC1", "values": [{"measurement": "AC50", "setting": "[1]", "result": "inconclusive: 104 µM"}, {"measurement": "outcome", "setting": "[1]", "result": "inactive"}, {"measurement": "AC50", "setting": "[7]", "result": "inconclusive: 104 µM and inconclusive: 772 nM"}, {"measurement": "AC50", "setting": "[3]", "result": "inconclusive: 104 µM and inconclusive: 188 µM"}, {"measurement": "AC50", "setting": "[4]", "result": "inconclusive: 104 µM"}, {"measurement": "AC50", "setting": "[6]", "result": "inconclusive: 104 µM"}, {"measurement": "AC50", "setting": "[8]", "result": "inconclusive: 104 µM"}, {"measurement": "AC50", "setting": "[5]", "result": "inconclusive: 26.7 µM and inconclusive: 104 µM"}, {"measurement": "outcome", "setting": "[5]", "result": "inactive"}, {"measurement": "AC50", "setting": "[9]", "result": "inconclusive: 104 µM"}]}
{"compound": "FC(F)(F)COC(OCC(F)(F)F)OCC(F)(F)F", "values": [{"measurement": "AC50", "setting": "[1]", "result": "inconclusive: 150 µM"}, {"measurement": "outcome", "setting": "[1]", "result": "inactive"}, {"measurement": "AC50", "setting": "[7]", "result": "inconclusive: 150000 nM"}, {"measurement": "outcome", "setting": "[7]", "result": "inactive"}, {"measurement": "AC50", "setting": "[3]", "result": "inconclusive: 150 µM"}, {"measurement": "outcome", "setting": "[4]", "result": "inactive"}, {"measurement": "AC50", "setting": "[6]", "result": "inconclusive: 150 µM"}, {"measurement": "AC50", "setting": "[8]", "result": "inconclusive: 150 µM"}, {"measurement": "outcome", "setting": "[8]", "result": "inactive"}, {"measurement": "AC50", "setting": "[10]", "result": "inconclusive: 150 µM"}]}
{"compound": "CN(C)C(=O)Nc1ccc(Cl)c(Cl)c1", "values": [{"measurement": "AC50", "setting": "[1]", "result": "inconclusive: 3.04 µM"}, {"measurement": "outcome", "setting": "[1]", "result": "inactive"}, {"measurement": "outcome", "setting": "[7]", "result": "inactive"}, {"measurement": "AC50", "setting": "[3]", "result": "inconclusive: 23.3 µM"}, {"measurement": "outcome", "setting": "[3]", "result": "inactive"}, {"measurement": "AC50", "setting": "[4]", "result": "inconclusive: 100 µM"}, {"measurement": "outcome", "setting": "[4]", "result": "inactive"}, {"measurement": "AC50", "setting": "[6]", "result": "inconclusive: 100 µM"}, {"measurement": "outcome", "setting": "[6]", "result": "inactive"}, {"measurement": "outcome", "setting": "[10]", "result": "inactive"}]}
